# Source: patent EP4194000A1, “CISTUS MONSPELIENSIS EXTRACT AND COMPOSITIONS COMPRISING SAME FOR SKIN SOOTHING” (Pierre Fabre Dermo-Cosmétique, priority 2021, dated 2023)
# At least one structure is not confirmed: it was looked up by name or label, or the drawing left a doubt.
# System: substance P
# Experiment: Substance P release by sensory neurons derived from human pluripotent stem cells, stimulated with veratridine (ELISA)
# Type: cell-based, humains
# Settings: Vératridine 3µM
# Text: Le but de cette étude est d'évaluer les propriétés modulatrices d'un extrait de Cistus monspeliensis dans l'inflammation neurogène cutanée.
# Pour se faire, les inventeurs ont développé une approche expérimentale in vitro. Un modèle original de neurones sensoriels humains a été développé après une reprogrammation cellulaire de cellules souches pluripotentes humaines. Ce modèle permet d'étudier les propriétés inhibitrices de la libération de la substance P par les composés à tester, étudié après la stimulation. Ce neuropeptide, la substance P, étant le principal neuromédiateur impliqué dans les voies de la sensibilisation dans l'inflammation neurogène, la douleur et le prurit.
# L'étape initiale est la reprogrammation de cellules souches pluripotentes humaines par l'utilisation successive de différents cocktails de facteurs de croissance. […]
# L'essai est réalisé sur le modèle de neurones sensoriels en culture dans un mélange de milieu (RPMI/N2/B27/Glutamax) en absence (conditions contrôle) ou en présence (groupes traités) des produits à tester. […] Les niveaux du neuropeptide qu'est la substance P sont quantifiés dix minutes après l'ajout de Veratridine. […]
# La substance P libérée est mesurée dans les milieux d'incubation du groupe non traité (contrôle) et des groupes traités après ou non la stimulation de Vératridine. Elle est quantifiée par ELISA selon les instructions du fournisseur. […]
structure (smiles),measurement,value
COc1ccc(C(=O)O[C@H]2CC[C@@]3(C)[C@@H]4CC[C@H]5[C@]6(O)C[C@H](O)[C@@]7(O)[C@@H](CN8C[C@@H](C)CC[C@H]8[C@@]7(C)O)[C@]6(O)C[C@@]53O[C@]24O)cc1OC [Vératridine],libération de substance P (result in words),augmente fortement et significativement la libération de substance P
